The other results are listed elsewhere or left out.
These targets were tested with CCN(CC)Cc1ccc2cc(COC(=O)Nc3ccc(C(=O)NO)cc3)ccc2c1 [givinostat] (assay: log2 fold change, soluble protein after heating vs DMSO (PISA); higher = thermal stabilisation; K562 cells, 10 uM, 30 min; active = over 0.2 and 3.5 SD of the protein, either way, in both replicates (recomputed)).
How it was run: (§1)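 K562 cells at 2×10^6 cells/mL were treated for 30 min with 10 μM compound, and aliquots were heated for 3 min over 48°C-58°C before pooling. Extraction used PBS with 0.5% NP-40 at 4°C, and soluble protein was the supernatant after 21,000xg for 90 min, measured by TMTpro 16plex LC-MS/MS with channel sums equalised. Thermal stability values, relative to control samples and from duplicates, are log2 fold changes.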

Amino acid sequences for entries named in this document (tags omitted). A change or cut given only in a name is not applied to a line headed by its entry.
UniProt P13497: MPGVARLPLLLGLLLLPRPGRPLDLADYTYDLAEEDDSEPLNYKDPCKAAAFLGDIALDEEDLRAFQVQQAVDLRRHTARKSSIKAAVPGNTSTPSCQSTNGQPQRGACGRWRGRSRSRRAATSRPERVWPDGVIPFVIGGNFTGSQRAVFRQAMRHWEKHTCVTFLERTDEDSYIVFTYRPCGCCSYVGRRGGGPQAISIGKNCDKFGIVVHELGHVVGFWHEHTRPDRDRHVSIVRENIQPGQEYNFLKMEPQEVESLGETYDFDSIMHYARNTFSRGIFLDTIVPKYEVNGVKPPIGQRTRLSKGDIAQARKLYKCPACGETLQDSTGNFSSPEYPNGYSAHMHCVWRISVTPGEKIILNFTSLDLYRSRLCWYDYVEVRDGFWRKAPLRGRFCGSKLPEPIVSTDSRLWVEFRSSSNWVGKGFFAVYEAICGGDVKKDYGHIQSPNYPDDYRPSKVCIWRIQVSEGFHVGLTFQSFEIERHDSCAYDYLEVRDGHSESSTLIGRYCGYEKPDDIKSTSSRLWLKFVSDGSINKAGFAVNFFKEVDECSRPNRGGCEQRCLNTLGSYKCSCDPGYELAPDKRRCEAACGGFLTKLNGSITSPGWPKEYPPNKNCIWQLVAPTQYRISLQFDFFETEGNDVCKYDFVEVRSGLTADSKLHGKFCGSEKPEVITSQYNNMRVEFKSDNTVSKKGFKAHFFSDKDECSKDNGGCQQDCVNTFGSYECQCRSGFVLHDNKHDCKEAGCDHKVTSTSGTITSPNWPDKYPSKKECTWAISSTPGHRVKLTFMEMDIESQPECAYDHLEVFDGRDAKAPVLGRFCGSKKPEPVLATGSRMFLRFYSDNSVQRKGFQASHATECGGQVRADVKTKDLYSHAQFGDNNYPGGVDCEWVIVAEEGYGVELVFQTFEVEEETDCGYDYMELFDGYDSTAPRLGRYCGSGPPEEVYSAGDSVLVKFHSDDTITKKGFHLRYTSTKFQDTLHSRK
UniProt Q8TBE0: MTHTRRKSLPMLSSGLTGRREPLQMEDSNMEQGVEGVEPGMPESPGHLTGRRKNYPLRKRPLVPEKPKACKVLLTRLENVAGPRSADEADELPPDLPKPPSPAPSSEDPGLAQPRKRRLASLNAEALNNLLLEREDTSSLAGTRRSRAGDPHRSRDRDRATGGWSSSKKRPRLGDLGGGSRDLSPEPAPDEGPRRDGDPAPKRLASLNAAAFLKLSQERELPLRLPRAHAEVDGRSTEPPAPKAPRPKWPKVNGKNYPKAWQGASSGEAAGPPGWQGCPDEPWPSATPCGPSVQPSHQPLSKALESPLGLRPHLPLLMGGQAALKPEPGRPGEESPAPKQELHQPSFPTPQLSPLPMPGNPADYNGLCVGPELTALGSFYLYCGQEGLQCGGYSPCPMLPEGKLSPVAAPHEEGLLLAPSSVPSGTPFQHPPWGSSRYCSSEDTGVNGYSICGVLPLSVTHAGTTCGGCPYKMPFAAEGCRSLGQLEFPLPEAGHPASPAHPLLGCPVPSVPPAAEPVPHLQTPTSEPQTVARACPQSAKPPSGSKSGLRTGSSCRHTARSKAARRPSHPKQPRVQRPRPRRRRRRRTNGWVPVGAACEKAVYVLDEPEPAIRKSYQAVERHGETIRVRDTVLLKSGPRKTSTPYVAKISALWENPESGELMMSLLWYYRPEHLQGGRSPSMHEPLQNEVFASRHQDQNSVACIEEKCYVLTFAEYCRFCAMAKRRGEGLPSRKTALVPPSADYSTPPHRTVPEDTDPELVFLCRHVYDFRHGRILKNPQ
UniProt Q96IK1: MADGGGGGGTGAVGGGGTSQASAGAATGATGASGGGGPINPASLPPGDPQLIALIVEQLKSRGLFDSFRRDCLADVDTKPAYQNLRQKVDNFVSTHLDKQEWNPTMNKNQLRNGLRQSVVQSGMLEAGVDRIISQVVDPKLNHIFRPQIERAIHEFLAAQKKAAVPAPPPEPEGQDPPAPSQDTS
UniProt Q9H7T9: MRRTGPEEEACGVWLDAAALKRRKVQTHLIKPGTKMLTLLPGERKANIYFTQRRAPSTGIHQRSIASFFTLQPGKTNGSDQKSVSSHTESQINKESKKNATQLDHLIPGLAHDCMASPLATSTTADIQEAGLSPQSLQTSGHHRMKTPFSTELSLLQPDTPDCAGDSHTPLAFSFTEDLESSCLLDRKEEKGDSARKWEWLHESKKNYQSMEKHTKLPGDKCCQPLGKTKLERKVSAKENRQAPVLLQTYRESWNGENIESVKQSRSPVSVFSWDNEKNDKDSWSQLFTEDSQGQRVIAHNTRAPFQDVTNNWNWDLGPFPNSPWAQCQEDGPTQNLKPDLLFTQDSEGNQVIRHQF
UniProt Q9NYM9: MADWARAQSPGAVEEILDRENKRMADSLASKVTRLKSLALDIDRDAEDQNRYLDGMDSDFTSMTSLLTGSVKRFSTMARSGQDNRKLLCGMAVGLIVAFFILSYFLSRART
UniProt Q4VC05, whole entry, looked up: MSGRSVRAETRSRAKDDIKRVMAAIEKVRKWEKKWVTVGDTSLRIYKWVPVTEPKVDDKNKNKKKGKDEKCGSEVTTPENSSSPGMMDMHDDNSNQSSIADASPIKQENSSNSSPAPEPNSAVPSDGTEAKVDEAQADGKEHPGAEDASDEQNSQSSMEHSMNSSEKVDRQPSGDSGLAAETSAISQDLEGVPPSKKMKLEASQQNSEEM
UniProt Q9NQS1: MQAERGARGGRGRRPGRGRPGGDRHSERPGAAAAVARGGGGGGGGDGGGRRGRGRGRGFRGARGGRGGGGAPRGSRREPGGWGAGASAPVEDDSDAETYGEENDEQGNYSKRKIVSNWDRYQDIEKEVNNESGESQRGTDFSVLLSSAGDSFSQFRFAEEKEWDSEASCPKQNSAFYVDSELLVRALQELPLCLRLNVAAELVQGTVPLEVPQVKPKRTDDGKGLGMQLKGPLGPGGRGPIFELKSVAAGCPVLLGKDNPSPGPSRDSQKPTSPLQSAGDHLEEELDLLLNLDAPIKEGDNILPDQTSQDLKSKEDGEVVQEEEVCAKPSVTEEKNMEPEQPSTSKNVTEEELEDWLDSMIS
UniProt Q9NWD9: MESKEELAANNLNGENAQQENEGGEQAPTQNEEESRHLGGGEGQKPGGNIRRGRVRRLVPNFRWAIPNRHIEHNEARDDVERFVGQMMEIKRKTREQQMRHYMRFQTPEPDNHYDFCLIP
UniProt O43521, whole entry, looked up: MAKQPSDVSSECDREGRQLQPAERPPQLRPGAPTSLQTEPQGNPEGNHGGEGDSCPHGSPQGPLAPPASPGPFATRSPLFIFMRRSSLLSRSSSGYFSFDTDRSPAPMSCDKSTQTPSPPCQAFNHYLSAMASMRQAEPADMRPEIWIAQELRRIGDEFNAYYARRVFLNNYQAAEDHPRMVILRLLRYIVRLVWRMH
UniProt Q8IXM2, whole entry, looked up: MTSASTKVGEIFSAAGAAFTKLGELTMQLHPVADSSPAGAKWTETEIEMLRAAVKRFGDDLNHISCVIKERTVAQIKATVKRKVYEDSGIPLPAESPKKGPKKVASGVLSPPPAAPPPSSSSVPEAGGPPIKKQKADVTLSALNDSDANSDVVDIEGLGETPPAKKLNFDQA
UniProt Q6PGQ7, whole entry, looked up: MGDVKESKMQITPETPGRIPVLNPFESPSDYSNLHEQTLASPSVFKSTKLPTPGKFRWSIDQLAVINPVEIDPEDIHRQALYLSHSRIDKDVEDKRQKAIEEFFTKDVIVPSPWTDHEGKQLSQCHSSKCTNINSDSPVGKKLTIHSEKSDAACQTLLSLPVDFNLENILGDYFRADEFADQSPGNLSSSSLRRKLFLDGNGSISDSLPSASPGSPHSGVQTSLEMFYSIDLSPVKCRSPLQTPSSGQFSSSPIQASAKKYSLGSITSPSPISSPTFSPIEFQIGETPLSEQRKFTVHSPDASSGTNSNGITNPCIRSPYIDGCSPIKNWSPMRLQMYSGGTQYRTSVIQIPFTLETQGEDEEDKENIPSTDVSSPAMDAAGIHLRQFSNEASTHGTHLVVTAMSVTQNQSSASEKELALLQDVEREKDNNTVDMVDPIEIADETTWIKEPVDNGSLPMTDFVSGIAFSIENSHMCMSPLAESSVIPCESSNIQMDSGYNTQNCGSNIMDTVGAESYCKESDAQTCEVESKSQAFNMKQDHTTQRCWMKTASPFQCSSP
UniProt O95415: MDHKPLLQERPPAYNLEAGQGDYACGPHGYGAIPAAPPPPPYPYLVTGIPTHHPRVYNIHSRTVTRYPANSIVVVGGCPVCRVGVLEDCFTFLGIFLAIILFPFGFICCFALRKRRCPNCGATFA
UniProt O60513: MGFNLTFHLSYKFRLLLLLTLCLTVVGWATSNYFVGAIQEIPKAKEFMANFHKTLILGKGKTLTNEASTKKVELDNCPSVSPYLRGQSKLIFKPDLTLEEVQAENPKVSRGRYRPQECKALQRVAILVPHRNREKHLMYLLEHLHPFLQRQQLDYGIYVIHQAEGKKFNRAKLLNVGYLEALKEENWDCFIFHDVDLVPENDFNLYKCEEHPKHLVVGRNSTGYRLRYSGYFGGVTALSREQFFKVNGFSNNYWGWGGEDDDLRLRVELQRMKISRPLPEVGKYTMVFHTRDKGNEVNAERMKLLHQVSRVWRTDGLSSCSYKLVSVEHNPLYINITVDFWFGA

log2 fold change, inactive:
BMP1 (UniProt P13497) -0.043
BAHD1 (UniProt Q8TBE0) 0.072
BOD1 (UniProt Q96IK1) -0.037
AUNIP isoform 2 (UniProt Q9H7T9) 0.083
BET1L (UniProt Q9NYM9) -0.081
BCL7A isoform 2 (UniProt Q4VC05) -0.066
AVEN (UniProt Q9NQS1) -0.047
AURKAIP1 (UniProt Q9NWT8) -0.018
BEX4 (UniProt Q9NWD9) 0.094
ATXN2 (UniProt F8W0B5) 0.041
BCL2L11 (UniProt O43521) -0.022
BAP18 isoform 3 (UniProt Q8IXM2) 0.025
BNIP2 (UniProt H7C096) 0.174
BCL7C isoform 2 (UniProt Q8WUZ0) -0.021

The targets below were run with CCN(CCCOc1ccc2c(Nc3cc(CC(=O)Nc4cccc(F)c4)[nH]n3)ncnc2c1)CCOP(=O)(O)O [barasertib] in the same assay as above.
How it was run: as §1

log2 fold change, inactive:
BMP1 (UniProt P13497) 0.027
BORA (UniProt Q6PGQ7) -0.014
BRI3 (UniProt O95415) -0.091
AVEN (UniProt Q9NQS1) 0.004
BCS1L, A0A2R8Y7T3 0.068
BEX4 (UniProt Q9NWD9) 0.088
B4GALT4 (UniProt O60513) -0.089
BNIP2 (UniProt H7C096) 0.062
BCL7C isoform 2 (UniProt Q8WUZ0) -0.022

Source: the supplement of paper PMC10849652
